{"source": "patent US4238500A", "about": "“Cyclic double hemiacetals of enediol compounds and compositions and methods for preparing and using same” (National Foundation for Cancer Research, priority 1979, dated 1980)", "system": "guinea pig ileum", "experiment": "Effects on pain receptors: twitch height of coaxially stimulated guinea pig ileum", "conditions": "Cavia porcellus, read-out: ED50 (50% reduction in twitch height)"}
{"smiles": "CN1CC[C@]23c4c5ccc(O)c4O[C@H]2[C@@H](O)C=C[C@H]3[C@H]1C5", "note": "[Morphine, morphine]", "values": [{"measurement": "IC50", "value": 8.5, "unit": "mM"}]}
